Measured values as given in paper PMC5620087.

Protein sequences, listed by entry. Tags and fused reporters are not part of them.
UniProt Q80TZ9: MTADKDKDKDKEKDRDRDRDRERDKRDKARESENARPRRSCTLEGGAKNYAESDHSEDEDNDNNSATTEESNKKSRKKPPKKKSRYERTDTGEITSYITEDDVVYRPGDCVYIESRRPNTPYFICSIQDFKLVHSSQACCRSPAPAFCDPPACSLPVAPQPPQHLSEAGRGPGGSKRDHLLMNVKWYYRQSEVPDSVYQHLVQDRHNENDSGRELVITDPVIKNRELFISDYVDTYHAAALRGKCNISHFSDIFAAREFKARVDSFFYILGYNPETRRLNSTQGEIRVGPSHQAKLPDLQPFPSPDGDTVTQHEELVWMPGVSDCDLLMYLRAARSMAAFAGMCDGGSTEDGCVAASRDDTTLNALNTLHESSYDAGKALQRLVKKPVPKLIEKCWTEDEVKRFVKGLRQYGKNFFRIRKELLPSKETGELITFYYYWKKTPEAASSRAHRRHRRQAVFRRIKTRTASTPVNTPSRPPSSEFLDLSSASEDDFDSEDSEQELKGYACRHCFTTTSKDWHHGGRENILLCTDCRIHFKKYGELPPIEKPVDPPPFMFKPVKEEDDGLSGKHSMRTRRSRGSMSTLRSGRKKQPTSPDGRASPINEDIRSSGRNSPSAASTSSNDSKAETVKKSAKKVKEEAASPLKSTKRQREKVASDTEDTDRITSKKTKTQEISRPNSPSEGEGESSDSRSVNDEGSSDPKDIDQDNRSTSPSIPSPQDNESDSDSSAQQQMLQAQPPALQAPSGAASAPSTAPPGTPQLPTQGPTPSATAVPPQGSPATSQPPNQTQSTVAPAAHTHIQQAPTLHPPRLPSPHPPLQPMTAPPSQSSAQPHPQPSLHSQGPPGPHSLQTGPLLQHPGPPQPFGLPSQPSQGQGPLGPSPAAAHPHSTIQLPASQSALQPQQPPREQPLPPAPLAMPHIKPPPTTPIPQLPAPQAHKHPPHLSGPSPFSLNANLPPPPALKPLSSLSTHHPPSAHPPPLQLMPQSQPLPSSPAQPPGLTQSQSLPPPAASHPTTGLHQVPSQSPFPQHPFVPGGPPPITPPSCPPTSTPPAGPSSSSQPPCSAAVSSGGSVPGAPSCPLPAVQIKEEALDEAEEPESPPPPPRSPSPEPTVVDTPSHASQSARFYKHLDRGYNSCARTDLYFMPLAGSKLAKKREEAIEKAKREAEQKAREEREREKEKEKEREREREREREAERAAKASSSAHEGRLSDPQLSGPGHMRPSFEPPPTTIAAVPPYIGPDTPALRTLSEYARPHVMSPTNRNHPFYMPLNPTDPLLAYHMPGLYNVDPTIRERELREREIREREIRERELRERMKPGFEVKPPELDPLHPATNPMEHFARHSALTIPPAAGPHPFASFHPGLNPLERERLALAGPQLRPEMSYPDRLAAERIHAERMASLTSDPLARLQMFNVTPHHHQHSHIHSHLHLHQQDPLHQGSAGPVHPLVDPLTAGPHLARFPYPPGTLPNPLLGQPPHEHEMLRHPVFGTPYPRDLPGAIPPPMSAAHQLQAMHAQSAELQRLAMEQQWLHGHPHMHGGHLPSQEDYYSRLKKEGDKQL
UniProt Q9Z148: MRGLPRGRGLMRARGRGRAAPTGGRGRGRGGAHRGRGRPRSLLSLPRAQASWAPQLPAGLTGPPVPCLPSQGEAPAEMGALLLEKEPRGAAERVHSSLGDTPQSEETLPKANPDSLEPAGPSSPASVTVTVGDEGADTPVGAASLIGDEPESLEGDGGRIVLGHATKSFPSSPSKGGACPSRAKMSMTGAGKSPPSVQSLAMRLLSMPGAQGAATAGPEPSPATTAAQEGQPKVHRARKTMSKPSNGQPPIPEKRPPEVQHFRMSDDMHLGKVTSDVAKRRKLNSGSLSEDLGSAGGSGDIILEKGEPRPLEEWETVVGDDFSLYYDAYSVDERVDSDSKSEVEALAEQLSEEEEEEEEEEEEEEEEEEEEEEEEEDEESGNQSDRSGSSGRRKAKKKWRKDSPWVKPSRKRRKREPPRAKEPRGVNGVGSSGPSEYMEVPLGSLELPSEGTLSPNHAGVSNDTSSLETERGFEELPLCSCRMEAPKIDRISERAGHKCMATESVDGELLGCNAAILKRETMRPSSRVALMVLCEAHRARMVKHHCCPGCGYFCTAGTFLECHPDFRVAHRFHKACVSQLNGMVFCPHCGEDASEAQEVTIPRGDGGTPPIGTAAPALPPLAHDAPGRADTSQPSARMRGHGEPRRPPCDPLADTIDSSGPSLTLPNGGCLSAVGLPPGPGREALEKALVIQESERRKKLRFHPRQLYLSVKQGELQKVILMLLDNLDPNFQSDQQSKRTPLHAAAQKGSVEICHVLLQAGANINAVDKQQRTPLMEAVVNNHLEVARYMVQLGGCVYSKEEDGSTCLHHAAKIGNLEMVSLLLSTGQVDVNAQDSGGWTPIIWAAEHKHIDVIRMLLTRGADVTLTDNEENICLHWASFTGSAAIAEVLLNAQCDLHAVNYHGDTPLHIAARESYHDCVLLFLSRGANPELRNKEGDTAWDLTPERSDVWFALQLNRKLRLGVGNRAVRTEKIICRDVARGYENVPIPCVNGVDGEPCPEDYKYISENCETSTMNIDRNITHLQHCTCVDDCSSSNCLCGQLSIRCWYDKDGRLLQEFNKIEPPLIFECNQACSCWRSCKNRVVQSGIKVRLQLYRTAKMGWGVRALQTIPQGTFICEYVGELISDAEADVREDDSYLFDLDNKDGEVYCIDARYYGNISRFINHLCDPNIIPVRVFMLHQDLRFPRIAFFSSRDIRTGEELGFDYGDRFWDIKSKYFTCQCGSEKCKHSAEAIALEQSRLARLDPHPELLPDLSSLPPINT
UniProt O09106: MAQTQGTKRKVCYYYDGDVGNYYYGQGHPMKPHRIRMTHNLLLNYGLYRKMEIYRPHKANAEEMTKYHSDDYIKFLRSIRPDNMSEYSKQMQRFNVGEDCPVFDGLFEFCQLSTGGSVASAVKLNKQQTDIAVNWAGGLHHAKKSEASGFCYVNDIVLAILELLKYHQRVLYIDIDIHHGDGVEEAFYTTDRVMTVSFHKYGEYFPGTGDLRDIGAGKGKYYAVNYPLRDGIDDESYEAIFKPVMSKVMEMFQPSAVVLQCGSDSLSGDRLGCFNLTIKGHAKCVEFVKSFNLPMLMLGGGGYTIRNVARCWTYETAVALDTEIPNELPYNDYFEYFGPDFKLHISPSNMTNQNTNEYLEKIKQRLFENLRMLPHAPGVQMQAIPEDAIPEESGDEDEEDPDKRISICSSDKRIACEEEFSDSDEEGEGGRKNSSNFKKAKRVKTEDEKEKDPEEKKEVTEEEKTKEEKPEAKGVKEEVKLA
UniProt P70288: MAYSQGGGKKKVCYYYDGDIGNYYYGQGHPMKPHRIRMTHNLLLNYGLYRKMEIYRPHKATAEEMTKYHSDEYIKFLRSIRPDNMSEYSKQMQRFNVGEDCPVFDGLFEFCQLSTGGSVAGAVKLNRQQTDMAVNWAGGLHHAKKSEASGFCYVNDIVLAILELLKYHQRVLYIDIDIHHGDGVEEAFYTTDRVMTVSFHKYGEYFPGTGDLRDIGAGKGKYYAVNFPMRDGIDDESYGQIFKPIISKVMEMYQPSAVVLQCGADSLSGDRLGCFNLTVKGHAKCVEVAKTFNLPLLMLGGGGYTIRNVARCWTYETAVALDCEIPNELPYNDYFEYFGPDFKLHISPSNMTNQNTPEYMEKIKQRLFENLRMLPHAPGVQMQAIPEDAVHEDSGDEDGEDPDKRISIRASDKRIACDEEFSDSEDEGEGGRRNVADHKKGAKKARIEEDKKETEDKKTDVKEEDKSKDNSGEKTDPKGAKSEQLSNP

What follows are substances tested against Rere-HA (mouse) (UniProt Q80TZ9) (assay: affinity purification with mass spectrometry; anti-HA affinity purification (Sigma or Roche antibody) from whole cell extracts of E10.5 RS-Rere-HA;T-Cre mouse embryos; low salt (150 mM NaCl) or high salt (300 mM NaCl); HA peptide and SDS elution; MudPIT; wild-type embryos as negative control).

Row | binding | Substance
1 | binds | Ehmt2 (endogenous, mouse embryo) (from UniProt Q9Z148 1-1263)
2 | binds | Hdac1 (endogenous, mouse embryo) (from UniProt O09106 1-482)
3 | binds | Hdac2 (endogenous, mouse embryo) (from UniProt P70288 1-488)

No constants are given. Whether binding was seen depends on the method and setting. In cells and extracts the contact can be indirect. These calls come from enrichment with a bait or labelling near it, and not all partners need be listed.
